Assay [1] concerns the target Tse15NN (Tse15 D1369N, D1391N), recombinant (Acinetobacter baumannii (strain AB307-0294)). Nature of the assay: cryo-EM structure.
The target of assay [2] is Tse15NN Rhs-toxin fragment (residues 335-1590, D1369N, D1391N) (Acinetobacter baumannii (strain AB307-0294)). Nature of the assay: cryo-EM structure.

These are yes or no findings as the source states them, for the method shown. Some entries that bind do so weakly or less than the wild type.

Consider “Tse15NN (Tse15 D1369N, D1391N), recombinant (from UniProt A0A5K6CSR3 1-334; A0A5K6CSR3 335-1590) (complex)”, for which, in assay [1], the binding entry is recorded as “no binding”.

B1: Tse15 N-terminal clade domain (residue 1-334) (domain or fragment, UniProt A0A5K6CSR3 1-334, looked up)
chain: MAKENTQQKEIKRQPAVELAVFNLNSVTDVADLQMIASQVQLYLQVCGNTTLEQIKSKANITTVANIFALTGSVLDLMLYATDKKTGDAAVQRGALLAANLIGLFSEPNNEAHARMALRPMFGLMAECLYRENGKIKETDIKRLGLHLNAMIAGDLENFLKETQAKLSSLLISATTLGVTILQSMATPATGINAGITTAAGASAEKRDPKLKFTNWAVPLIDLLGKPSQANLTPKIQPNITSRLQQEATQAIAALSQTLQQQANAGQKYTLAWLLQETLKAIQALENKGNASVPINQTGEYERHTKGDTLEFVSLQADALNAPPCEGADSQSGK
With B1, the binding result in assay [2] is reported as “binds”.

The values are drawn from doi:10.1101/2023.11.18.567679 (bioRxiv, 2023).
